# Where “and” joins values, the source holds several entries; their conditions need not be identical. Identical values can stand only once. The campaign covered roughly 580,000 compounds. About 6,100 (1.1%) were called active. The inconclusive results got no clear call from the source; some entries with a clear call stand among them for comparison. Calls follow the shape of the dose curve; as a rule, active = well fitted inhibition curve with a large enough effect; inconclusive = small, poorly fitted or top-dose-only effect, or another doubt; inactive = no such curve, though single readings can be large or run the other way. Potencies beside an inconclusive call are fits to weak or partial responses and may not hold up.
# The chains behind the UniProt entries cited, without tags or fusion partners. Where a name states a change or a piece, a line headed by the entry shows the natural chain unless it says otherwise.
# UniProt P18054: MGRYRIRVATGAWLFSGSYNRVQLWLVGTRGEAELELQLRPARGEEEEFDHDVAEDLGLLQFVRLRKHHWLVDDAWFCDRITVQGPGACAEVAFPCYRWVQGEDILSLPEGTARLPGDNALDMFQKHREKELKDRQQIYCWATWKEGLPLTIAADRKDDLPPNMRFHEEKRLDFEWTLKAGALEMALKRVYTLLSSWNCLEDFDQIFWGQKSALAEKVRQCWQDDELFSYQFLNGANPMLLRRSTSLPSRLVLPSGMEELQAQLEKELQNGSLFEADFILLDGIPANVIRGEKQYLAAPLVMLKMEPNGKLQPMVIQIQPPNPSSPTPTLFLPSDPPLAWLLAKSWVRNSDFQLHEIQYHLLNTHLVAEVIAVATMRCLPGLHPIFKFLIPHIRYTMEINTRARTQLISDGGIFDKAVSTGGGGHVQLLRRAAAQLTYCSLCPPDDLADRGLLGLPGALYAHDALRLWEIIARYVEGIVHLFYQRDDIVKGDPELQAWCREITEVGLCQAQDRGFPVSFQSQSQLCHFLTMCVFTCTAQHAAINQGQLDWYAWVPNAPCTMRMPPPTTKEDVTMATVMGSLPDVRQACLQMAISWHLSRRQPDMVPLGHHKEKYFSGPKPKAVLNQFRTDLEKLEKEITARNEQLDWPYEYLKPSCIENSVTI
# Molecular target: Polyunsaturated fatty acid lipoxygenase ALOX12 (Homo sapiens) (UniProt P18054)
# Experiment: Primary qHTS assay for inhibitors of human arachidonate 12S-lipoxygenase (ALOX12): Round 2
# Conditions: purified 12hLO, xylenol orange hydroperoxide absorbance; activity change, negative = inhibition: at 108 µM (top of the series) unless noted
# How it was run: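 Hydroperoxide product was detected by ferrous iron/xylenol orange as the 573 to 405 nm absorbance ratio. Arachidonic acid at 40 uM (final) was turned over for 30 min at room temperature by 150 nM human 12hLO, pH 7.0 Hepes buffer, after 15 min compound preincubation.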
# % is scaled to controls: 0 for no effect and ±100 for the full control effect; potency is read from the fitted curve at half-maximal effect.
Compound,Potency,"activity change, negative = inhibition"
O=C(CN1C(=O)NC(c2ccc(Cl)cc2)C2=C1COC2=O)Nc1cc(F)ccc1F (stereo unspecified),"inconclusive: 31.6 µM [inhibitor, single point]",–
CC1(C)Cc2cccc(OCC(=O)OCC(=O)Nc3ccc(S(N)(=O)=O)cc3)c2O1,"inconclusive: 50.1 µM [inhibitor, partial curve, poor fit]",–
CCN1C(=O)[C@H]2[C@@H](c3ccc(OC)cc3)N[C@]3(CCCN(Cc4ccc(C)cc4)C3=O)[C@H]2C1=O,"inconclusive: 14.1 µM [inhibitor, partial curve]",–
COc1ccc(C(NC(=O)c2cccc(-n3cnnc3)n2)C2CC(O)C2)cn1 (stereo unspecified),–,inactive: 1.66%
Cc1sc(/N=C/c2c[nH]c3ccccc23)c(C#N)c1C,active: 20 µM,–
CN(c1ccccc1)S(=O)(=O)c1ccc(NC(=S)NC(=O)C2CC2)cc1,"inconclusive: 44.7 µM [inhibitor, partial curve, poor fit]",–
O=C(Nc1cccnc1)c1cc(-c2cccc(Br)c2)nc2ccccc12,"inconclusive: 44.7 µM [inhibitor, partial curve, poor fit]",–
COc1ccc(OC)c(C(=O)CSc2nnc(-c3cccnc3)n2C)c1,"inconclusive: 44.7 µM [inhibitor, partial curve, poor fit]",–
CC(C)=CCc1c2c(c3occ(-c4ccc(O)c(O)c4)c(=O)c3c1O)C=CC(C)(C)O2,"inconclusive: 50.1 µM [inhibitor, partial curve, poor fit] and active: 39.8 µM",–
Cc1cccnc1NC(=S)NC(=O)c1oc2ccccc2c1C,"inconclusive: 56.2 µM [inhibitor, partial curve, poor fit]",–
COc1cc(C2C3=C(CC(C)(C)CC3=O)NC3=C2C(=O)c2ccccc23)ccc1O (stereo unspecified),"inconclusive: 79.4 µM [inhibitor, single point]",–
CCC(=O)N1CCN(c2ccc(NC(=S)NC(=O)c3cc4ccccc4o3)cc2)CC1,"inconclusive: 2 µM [inhibitor, full curve, poor fit]",–
CC(C)NC(=O)C1CCC(Cn2cnnn2)CC1 (stereo unspecified),–,inactive: 49.7%
O=C(CC12CC3CC(CC(C3)C1)C2)NCc1ccccc1Cl,"inconclusive: 35.5 µM [inhibitor, partial curve, poor fit]",–
COc1ccc(-c2csc(C(O)(c3ccccc3)C(F)(F)F)n2)cc1 (stereo unspecified),"inconclusive: 50.1 µM [inhibitor, partial curve, poor fit]",–
Cc1ccc(C(=O)N/N=C/C=C/c2ccccc2)cc1,–,inactive: 7.84%
CCSCCCn1[nH]c2ccccc2c1=O,"inconclusive: 3.16 µM [inhibitor, full curve, poor fit]",–
CC(=O)Nc1nc2c(s1)C[C@@H]1[C@](C)(CO)[C@H](O)CC[C@@]1(C)[C@@H]2CC(=O)NC1CC1,"inconclusive: 39.8 µM [inhibitor, partial curve, poor fit]",–
COc1cccc(-c2ccc3nccn3c2)c1,"inconclusive: 44.7 µM [inhibitor, partial curve, poor fit]",–
COc1ccccc1N1CCN(C2CCCN(S(=O)(=O)c3ccccc3)C2)CC1 (stereo unspecified),–,inactive: 3.36%
CCOc1cc2c(cc1NC(=O)c1ccc(SC)cc1OC)OC(C)C2 (stereo unspecified),–,inactive: 3.12%
CCCCN1C(=O)N2Cc3ccccc3C2CS1(=O)=O (stereo unspecified),–,inactive: -20.7%

Compound,Potency,"activity change, negative = inhibition"
CC1CCN(Cc2c(C(=O)N/N=C/c3cccc(C(F)(F)F)c3)nnn2-c2nonc2N)CC1,–,inactive: -0.671%
CN(Cc1ccc(F)cc1)c1cc(C(=O)N2CCOCC2)c2ccccc2n1,–,inactive: 25.8%
Cc1cc(C)cc(Nc2c3c(nc4ccccc24)CCC3)c1,"inconclusive: 79.4 µM [inhibitor, partial curve, poor fit]",–
CC1=CC(C)(C)N2C(=O)C3(N=C(N)NC(Nc4ccccc4)=N3)c3cc(C)cc1c32 (stereo unspecified),"inconclusive: 89.1 µM [inhibitor, partial curve, poor fit]",–
Cc1cccc(-n2nnnc2Sc2nnnn2-c2ccccc2)c1C,–,inactive: 20.4%
CCc1nc2c(OCC(=O)N3CCOCC3)cccn2c1N(C=O)Cc1ccccc1,"inconclusive: 44.7 µM [inhibitor, partial curve]",–
O=C(CCc1ccc(Oc2cc([N+](=O)[O-])cc([N+](=O)[O-])c2)cc1)Nc1cccc(Cl)c1,"inconclusive: 141 µM [inhibitor, partial curve, poor fit]",–
CO[C@H]1C=CO[C@@]2(C)Oc3c(C)c(O)c4c(O)c(c(C=NN5CCN(C)CC5)c(O)c4c3C2=O)NC(=O)C(C)=CC=C[C@H](C)[C@H](O)[C@@H](C)[C@@H](O)[C@@H](C)[C@H](OC(C)=O)[C@H]1C,"inconclusive: 0.0695 µM [inhibitor, full curve, poor fit]",–
CCNS(=O)(=O)c1ccc2c(c1)NC(=O)CO2,"inconclusive: 8.91 µM [inhibitor, partial curve, poor fit]",–
CC(C)CN1CC(C)C(=O)NC1=S (stereo unspecified),"inconclusive: 50.1 µM [inhibitor, partial curve, poor fit]",–
COc1ccccc1N1CCN(Cc2cc(=O)oc3cc(O)c(Cl)cc23)CC1,inactive,–
O=C(O)CCc1ccc(S(=O)(=O)Nc2ccc(OCc3ccccc3)cc2)cc1,–,inactive: 0.0433%
O=C(O)CN1CCC(C(=O)O)CC1,"inconclusive: 31.6 µM [inhibitor, partial curve, poor fit]",–
CC(C)C(=O)NCC1CCC2(CCN(Cc3ccc(-c4ccccc4Cl)o3)CC2)O1 (stereo unspecified),"inconclusive: 89.1 µM [inhibitor, single point]",–
CN1CCN(S(=O)(=O)c2ccc(NC(=O)c3cccc(F)c3)cc2)CC1,"inconclusive: 28.2 µM [inhibitor, partial curve]",–
Cc1ccc2nc(NC(=O)CN3C(=O)NC4(CCCC4)C3=O)sc2c1,"inconclusive: 12.6 µM [inhibitor, partial curve, poor fit]",–
Cc1ccc(Nc2nc(CN3CCN(S(=O)(=O)c4cc(C)ccc4C)CC3)cs2)cc1,"inconclusive: 112 µM [inhibitor, single point]",–
c1c2c(cc3sc(N4CCCCC4)nc13)OCO2,–,inactive: 0%
CN(C)C(=O)c1ccc(Cl)cc1[N+](=O)[O-],–,inactive: -1.58%
NC(Cc1ccc(OC(F)(F)F)cc1)C(=O)O (stereo unspecified),–,inactive: -21.3%
O=C(O)C1CN(c2nccc(N3CCC(O)CC3)n2)CCN1 (stereo unspecified),"inconclusive: 10 µM [inhibitor, full curve, poor fit]",–
COc1cc(C(=O)NCC(=O)N2CCN(S(=O)(=O)c3ccccc3)CC2)cc(OC)c1OC,"inconclusive: 89.1 µM [inhibitor, single point]",–

Compound,Potency,"activity change, negative = inhibition"
CCOC(=O)c1cc(-c2ccccc2)nn1Cc1cc(CC)no1,–,inactive: -119%
O=C(CN1C(=O)S/C(=C\c2ccccc2)C1=O)Nc1cc([N+](=O)[O-])ccc1O,"inconclusive: 100 µM [inhibitor, single point]",–
CSc1ccc2nnc(-c3cccc(F)c3)n2n1,"inconclusive: 35.5 µM [inhibitor, partial curve, poor fit]",–
CCc1cccc(CC)c1NC(=O)CCn1cnc2c1c(=O)n(C)c(=O)n2C,–,inactive: -25.8%
N#Cc1c(Nc2cccc(F)c2)sc(C(=O)c2ccc(Cl)cc2)c1N,active: 44.7 µM,–
CCOC(=O)C1=C(C)NC(SC)=NC1c1ccc(OC)cc1 (stereo unspecified),"inconclusive: 1.12 µM [inhibitor, full curve, poor fit]",–
CN(C)CCCNC(=O)c1cc(C(=O)c2cccc(Cl)c2Cl)c[nH]1,"inconclusive: 50.1 µM [inhibitor, partial curve, poor fit]",–
CCOC(=O)c1c(CSc2ccc(C)cc2)oc2ccc(O)cc12,"inconclusive: 89.1 µM [inhibitor, partial curve, poor fit]",–
O=C(Cc1cccc(C(F)(F)F)c1)NC1(c2ccccc2)CCC1,active: 35.5 µM,–
N#CC1=C(N)Oc2ccc3ccccc3c2C1c1cccnc1 (stereo unspecified),–,inactive: 8.95%
Cc1ccccc1Cn1nc(C)c(NC(=O)C2c3ccccc3Oc3ccccc32)c1C,–,inactive: 7.6%
Cc1cc(Br)cn2c(Cc3ccccc3C(F)(F)F)c(-c3cccc(Cl)c3)nc12,"inconclusive: 1.58 µM [inhibitor, partial curve, poor fit]",–
CCCCc1ccc(CC(=O)Nc2cc(S(=O)(=O)N3CCOCC3)ccc2O)cc1,"inconclusive: 50.1 µM [inhibitor, partial curve, poor fit]",–
CCOC(=O)C1CCCN(c2c(NCc3ccco3)c(=O)c2=O)C1 (stereo unspecified),"inconclusive: 89.1 µM [inhibitor, single point]",–
CC(CCc1ccccc1)NC(=O)Cn1cccc1-c1nc(-c2ccccc2)no1 (stereo unspecified),"inconclusive: 79.4 µM [inhibitor, single point]",–
CCCC1Cc2c(sc3nc(SCC(=O)c4ccccc4)nc(N)c23)CO1 (stereo unspecified),"inconclusive: 112 µM [inhibitor, single point]",–
CC(C)CN(C(=O)COc1ccccc1C(=O)NCc1ccccc1)C1CCS(=O)(=O)C1 (stereo unspecified),–,inactive: 2.53%
O=C(O)C1Nc2c(C(F)(F)F)ccc(Cl)c2C2C=CCC12 (stereo unspecified),"inconclusive: 39.8 µM [inhibitor, single point]",–
CCc1ccc(-c2nc3cc(NC(=O)c4cccnc4)ccc3o2)cc1,"inconclusive: 39.8 µM [inhibitor, single point]",–
COCC(=O)NC[C@H]1OC[C@@H](NC2CCC2)[C@@H]1O,–,inactive: 54.2% [at 176 µM]
Cc1ccc(OCC(=O)Nc2ccc3nc(Nc4cccc(Cl)c4)cc(C)c3c2)cc1,–,inactive: -24.2%
O=c1[nH]c(=O)n(Cc2ccccc2)c2nc(-c3ccco3)cc(C(F)(F)F)c12,"inconclusive: 44.7 µM [inhibitor, partial curve, poor fit]",–

# — PubChem BioAssay AID1671190 (National Center for Advancing Translational Sciences (NCATS), 2021)
